Reference: patent US9388405B2, “Method for identifying a subpopulation of mammalian cells with distinctive ribosome translation profiles” (priority 2009, dated 2016)
Some results were stated once for a whole list of compounds, not compound by compound.

Columns and labels:
Assay type in all cases: cell-based, human
[1] = test system: HEK293 hTRdm-fLuc #53 and HEK293 mTRdm-fLuc #12 subclones; assay: Microtubule disruptor single-Toxin dose response, cap-independent; conditions: 5 nM to 5 uM
Procedure: The plate reader values were averaged and expressed as the ratio of treated to untreated samples (Fold Induction). Highly similar TR expression profile were produced by the human (hTRdm, top panel) and the mouse (mTRdm, bottom panel) TR cassettes. […] In contrast, significant increases in reporter activity were only observed at nocodazole concentrations greater than 250 nM. As in the cap-dependent assay, taxol-specific reporter increases were only observed at the 2.5 uM and 5 uM doses.
Highly similar cap-independent translational profiles were produced by each TR-expressing cell line (FIGS. 29B and C). […] This contrasted with the nocodazole responses, where significant increases were observed only at concentrations larger than 250 nM. As before, taxol-specific translational increases were only observed at the 2.5 uM and 5 uM doses.

[2] = test system: HEK293 CMV-fLUC #3, hTRdm-fLUC #13 and mTRdm-fLUC #45 subclones; assay: Translation elongation inhibitor single-Toxin and two-Toxin (100 nM TPA) dose response; conditions: 10 nM inhibitor + 100 nM TPA, CMV-fLUC #3 and mTRdm-fLUC #45
Procedure: At sufficiently large doses, these inhibitors immediately stop protein translation, and the resulting protein turnover reduces reporter protein levels below untreated cell levels (<100% control).
For the HEK293 CMV-fLUC #3 (top panel) and mTRdm-fLUC #45 (bottom panel) subclones, anisomycin and emetine antagonized the TPA response at the lowest tested dose (10 nM) and reduced reporter protein levels 50-300% compared to the TPA single-Toxin assay. This contrasted with puromycin, which required a 250 nM concentration (25×) to initially reduce protein synthesis below the TPA Single-Toxin assay level in all three cell lines. […] For example, the CMV-fLUC #3 subclone required a 2.5 uM puromycin dose to correlate with the other inhibitors, which contrasted with hTRdm-fLUC #13 and mTRdm-fLUC #45 subclones which needed a 25 uM puromycin concentration (a 10× increase).
In this example (FIG. 33), single-Toxin and two-Toxin dose responses were used to define translational responses associated with translation inhibitors. Inhibitors of protein biosynthesis generally act by interfering with translational initiation (assembly of the components or structures required for translation) or elongation (enzymatic process of peptide synthesis and chain movement within the ribosome). A variety of translational inhibitors exist that affect each of these stages. […]

[3] = test system: MCF7 mTRdm-fLuc subclone #27; assay: Topoisomerase 1 inhibitor single-Toxin and two-Toxin (100 nM TPA) dose response, cap-independent
Procedure: FIG. 28C illustrates the use of single-Toxin Assays to measure the effects of Topoisomerase 1 inhibitors on cap-independent translation in MCF7 cells. Triplicate samples of the MCF7 mTRdm-fLuc subclone #27 were treated with varying concentrations (10 nM to 10 uM range) of the Topoisomerase 1 inhibitors; camptothecin, rubitecan, irinotecan and topotecan. The plate reader values were averaged and expressed as the ratio of treated to untreated samples (Fold Induction). The dashed line represents the level of translational response in untreated controls.
FIG. 28D illustrates the use of a two-Toxin Combinatorial Assay on the MCF7 mTRdm-fLuc subclone #27 treated with 100 nM TPA plus varying doses (10 nM to 10 uM range) of the Topoisomerase 1 inhibitors. The plate reader values were averaged and expressed as the ratio of treated to untreated samples (Fold Induction). The dashed line represents the level of translational response in untreated samples. All four inhibitors acted synergistically with TPA to increase protein activity in the 10 nM two-Toxin assay.
FIG. 28D illustrates the use of a two-Toxin dose response assay using varying dosages of the TopoI inhibitors in combination with the 100 nM TPA translational activator. All four inhibitors acted synergistically with TPA at low doses to increase protein translation. At concentrations higher than 100 nM, camptothecin, rubitecan, and topotecan antagonized the TPA response and reduced the fLUC expression.

**Q.** For `COc1cc2c(c(OC)c1OC)-c1ccc(OC)c(=O)cc1[C@@H](NC(C)=O)CC2` [colchicine, N-[(7S)-1,2,3,10-tetramethoxy-9-oxo-5,6,7,9-tetrahydrobenzo[a]heptalen-7-yl]acetamide], which “doses exhibiting increased reporter activity” value [1] is on record?
**A.** > 100 nM

**Q.** Which “reduction of reporter protein levels compared to the TPA single-Toxin assay” value [2] does the source give for `CC[C@H]1CN2CCc3cc(OC)c(OC)cc3[C@@H]2C[C@@H]1C[C@H]1NCCc2cc(OC)c(OC)cc21` [emetine] here?
**A.** 50-300%

**Q.** With `CC[C@@]1(O)C(=O)OCc2c1cc1n(c2=O)Cc2cc3c([N+](=O)[O-])cccc3nc2-1` [rubitecan] as the compound, how does the “fLUC protein levels relative to untreated control cells” value ([3]; 10 uM two-Toxin assay with 100 nM TPA) read?
**A.** < 100%

**Q.** And the “fLUC protein levels relative to untreated control cells” value ([3]; single-Toxin, high concentration)?
**A.** < 100%

**Q.** And the “concentrations at which the TPA response was antagonized and fLUC expression reduced” value ([3]; two-Toxin with 100 nM TPA)?
**A.** higher than 100 nM

**Q.** With `CC[C@]1(O)C[C@H]2CN(CCc3c([nH]c4ccccc34)[C@@](C(=O)OC)(c3cc4c(cc3OC)N(C=O)[C@H]3[C@@](O)(C(=O)OC)[C@H](OC(C)=O)[C@]5(CC)C=CCN6CC[C@]43[C@@H]65)C2)C1` [vincristine] as the compound, how does the “doses exhibiting increased reporter activity” value [1] read?
**A.** > 100 nM
